Where two headings read alike, the source gives them in different places. No constants are given. Whether binding was seen depends on the method and setting. Binding seen in cells or lysates may run through a third protein. Some results given as binding are weak or reduced against the parent protein; the word gives no strength. Sequences can lack the tags named with a protein.
Tests used:
Experiment in all cases: co-IP
[1] = target: T1, murine Gpr126-myc tagged protein (mouse) (UniProt Q6F3F9)
T1 sequence: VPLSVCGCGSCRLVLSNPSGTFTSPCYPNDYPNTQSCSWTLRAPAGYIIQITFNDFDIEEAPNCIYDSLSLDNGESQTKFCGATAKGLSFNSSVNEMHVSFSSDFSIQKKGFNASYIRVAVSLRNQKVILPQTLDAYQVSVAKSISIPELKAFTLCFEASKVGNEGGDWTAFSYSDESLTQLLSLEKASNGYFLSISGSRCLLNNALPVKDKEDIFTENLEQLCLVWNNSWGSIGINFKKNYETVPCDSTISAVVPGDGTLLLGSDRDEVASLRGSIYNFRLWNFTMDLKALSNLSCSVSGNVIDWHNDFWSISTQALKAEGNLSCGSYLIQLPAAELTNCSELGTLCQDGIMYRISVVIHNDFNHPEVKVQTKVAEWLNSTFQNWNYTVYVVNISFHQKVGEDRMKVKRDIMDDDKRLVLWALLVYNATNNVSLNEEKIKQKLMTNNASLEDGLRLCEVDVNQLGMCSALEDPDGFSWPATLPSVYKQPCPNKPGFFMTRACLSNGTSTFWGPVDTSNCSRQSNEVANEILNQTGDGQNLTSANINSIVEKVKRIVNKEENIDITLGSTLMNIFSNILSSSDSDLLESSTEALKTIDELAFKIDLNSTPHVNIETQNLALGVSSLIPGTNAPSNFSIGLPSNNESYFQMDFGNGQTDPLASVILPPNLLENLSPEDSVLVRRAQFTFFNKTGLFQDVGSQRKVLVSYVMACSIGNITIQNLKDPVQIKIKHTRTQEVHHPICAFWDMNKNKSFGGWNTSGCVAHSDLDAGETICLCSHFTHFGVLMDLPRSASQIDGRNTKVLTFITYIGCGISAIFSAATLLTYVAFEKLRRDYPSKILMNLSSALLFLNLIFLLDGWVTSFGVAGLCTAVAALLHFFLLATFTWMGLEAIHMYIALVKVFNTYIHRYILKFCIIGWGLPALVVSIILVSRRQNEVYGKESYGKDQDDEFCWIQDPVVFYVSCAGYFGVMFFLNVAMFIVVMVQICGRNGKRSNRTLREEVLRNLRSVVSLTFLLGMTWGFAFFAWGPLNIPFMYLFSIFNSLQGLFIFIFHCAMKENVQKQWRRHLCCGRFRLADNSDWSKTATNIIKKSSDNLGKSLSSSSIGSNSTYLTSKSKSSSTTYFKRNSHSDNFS

The chains behind the UniProt entries cited, without tags or fusion partners. Residues count along the entry.
UniProt P09055, residues 21-798: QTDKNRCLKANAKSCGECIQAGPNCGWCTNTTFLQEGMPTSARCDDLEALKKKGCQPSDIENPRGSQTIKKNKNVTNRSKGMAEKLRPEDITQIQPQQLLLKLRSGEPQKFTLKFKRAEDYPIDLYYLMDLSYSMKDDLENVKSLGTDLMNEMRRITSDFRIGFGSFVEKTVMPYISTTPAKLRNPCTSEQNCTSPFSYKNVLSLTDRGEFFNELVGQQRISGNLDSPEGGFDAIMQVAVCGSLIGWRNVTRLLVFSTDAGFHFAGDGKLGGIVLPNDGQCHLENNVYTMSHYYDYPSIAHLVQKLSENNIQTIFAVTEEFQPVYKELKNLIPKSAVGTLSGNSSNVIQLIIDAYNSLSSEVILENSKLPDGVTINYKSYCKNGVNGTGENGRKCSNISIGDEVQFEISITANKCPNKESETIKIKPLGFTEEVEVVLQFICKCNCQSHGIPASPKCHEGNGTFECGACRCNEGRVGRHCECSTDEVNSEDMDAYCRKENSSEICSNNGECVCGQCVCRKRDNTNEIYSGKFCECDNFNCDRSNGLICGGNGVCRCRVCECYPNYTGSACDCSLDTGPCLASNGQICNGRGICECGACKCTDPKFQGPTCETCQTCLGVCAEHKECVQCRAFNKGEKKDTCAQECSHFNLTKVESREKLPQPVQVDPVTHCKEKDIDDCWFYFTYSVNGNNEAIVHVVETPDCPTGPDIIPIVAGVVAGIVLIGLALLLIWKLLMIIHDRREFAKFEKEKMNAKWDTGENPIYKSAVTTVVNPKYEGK
UniProt Q91ZX7, residues 20-4545: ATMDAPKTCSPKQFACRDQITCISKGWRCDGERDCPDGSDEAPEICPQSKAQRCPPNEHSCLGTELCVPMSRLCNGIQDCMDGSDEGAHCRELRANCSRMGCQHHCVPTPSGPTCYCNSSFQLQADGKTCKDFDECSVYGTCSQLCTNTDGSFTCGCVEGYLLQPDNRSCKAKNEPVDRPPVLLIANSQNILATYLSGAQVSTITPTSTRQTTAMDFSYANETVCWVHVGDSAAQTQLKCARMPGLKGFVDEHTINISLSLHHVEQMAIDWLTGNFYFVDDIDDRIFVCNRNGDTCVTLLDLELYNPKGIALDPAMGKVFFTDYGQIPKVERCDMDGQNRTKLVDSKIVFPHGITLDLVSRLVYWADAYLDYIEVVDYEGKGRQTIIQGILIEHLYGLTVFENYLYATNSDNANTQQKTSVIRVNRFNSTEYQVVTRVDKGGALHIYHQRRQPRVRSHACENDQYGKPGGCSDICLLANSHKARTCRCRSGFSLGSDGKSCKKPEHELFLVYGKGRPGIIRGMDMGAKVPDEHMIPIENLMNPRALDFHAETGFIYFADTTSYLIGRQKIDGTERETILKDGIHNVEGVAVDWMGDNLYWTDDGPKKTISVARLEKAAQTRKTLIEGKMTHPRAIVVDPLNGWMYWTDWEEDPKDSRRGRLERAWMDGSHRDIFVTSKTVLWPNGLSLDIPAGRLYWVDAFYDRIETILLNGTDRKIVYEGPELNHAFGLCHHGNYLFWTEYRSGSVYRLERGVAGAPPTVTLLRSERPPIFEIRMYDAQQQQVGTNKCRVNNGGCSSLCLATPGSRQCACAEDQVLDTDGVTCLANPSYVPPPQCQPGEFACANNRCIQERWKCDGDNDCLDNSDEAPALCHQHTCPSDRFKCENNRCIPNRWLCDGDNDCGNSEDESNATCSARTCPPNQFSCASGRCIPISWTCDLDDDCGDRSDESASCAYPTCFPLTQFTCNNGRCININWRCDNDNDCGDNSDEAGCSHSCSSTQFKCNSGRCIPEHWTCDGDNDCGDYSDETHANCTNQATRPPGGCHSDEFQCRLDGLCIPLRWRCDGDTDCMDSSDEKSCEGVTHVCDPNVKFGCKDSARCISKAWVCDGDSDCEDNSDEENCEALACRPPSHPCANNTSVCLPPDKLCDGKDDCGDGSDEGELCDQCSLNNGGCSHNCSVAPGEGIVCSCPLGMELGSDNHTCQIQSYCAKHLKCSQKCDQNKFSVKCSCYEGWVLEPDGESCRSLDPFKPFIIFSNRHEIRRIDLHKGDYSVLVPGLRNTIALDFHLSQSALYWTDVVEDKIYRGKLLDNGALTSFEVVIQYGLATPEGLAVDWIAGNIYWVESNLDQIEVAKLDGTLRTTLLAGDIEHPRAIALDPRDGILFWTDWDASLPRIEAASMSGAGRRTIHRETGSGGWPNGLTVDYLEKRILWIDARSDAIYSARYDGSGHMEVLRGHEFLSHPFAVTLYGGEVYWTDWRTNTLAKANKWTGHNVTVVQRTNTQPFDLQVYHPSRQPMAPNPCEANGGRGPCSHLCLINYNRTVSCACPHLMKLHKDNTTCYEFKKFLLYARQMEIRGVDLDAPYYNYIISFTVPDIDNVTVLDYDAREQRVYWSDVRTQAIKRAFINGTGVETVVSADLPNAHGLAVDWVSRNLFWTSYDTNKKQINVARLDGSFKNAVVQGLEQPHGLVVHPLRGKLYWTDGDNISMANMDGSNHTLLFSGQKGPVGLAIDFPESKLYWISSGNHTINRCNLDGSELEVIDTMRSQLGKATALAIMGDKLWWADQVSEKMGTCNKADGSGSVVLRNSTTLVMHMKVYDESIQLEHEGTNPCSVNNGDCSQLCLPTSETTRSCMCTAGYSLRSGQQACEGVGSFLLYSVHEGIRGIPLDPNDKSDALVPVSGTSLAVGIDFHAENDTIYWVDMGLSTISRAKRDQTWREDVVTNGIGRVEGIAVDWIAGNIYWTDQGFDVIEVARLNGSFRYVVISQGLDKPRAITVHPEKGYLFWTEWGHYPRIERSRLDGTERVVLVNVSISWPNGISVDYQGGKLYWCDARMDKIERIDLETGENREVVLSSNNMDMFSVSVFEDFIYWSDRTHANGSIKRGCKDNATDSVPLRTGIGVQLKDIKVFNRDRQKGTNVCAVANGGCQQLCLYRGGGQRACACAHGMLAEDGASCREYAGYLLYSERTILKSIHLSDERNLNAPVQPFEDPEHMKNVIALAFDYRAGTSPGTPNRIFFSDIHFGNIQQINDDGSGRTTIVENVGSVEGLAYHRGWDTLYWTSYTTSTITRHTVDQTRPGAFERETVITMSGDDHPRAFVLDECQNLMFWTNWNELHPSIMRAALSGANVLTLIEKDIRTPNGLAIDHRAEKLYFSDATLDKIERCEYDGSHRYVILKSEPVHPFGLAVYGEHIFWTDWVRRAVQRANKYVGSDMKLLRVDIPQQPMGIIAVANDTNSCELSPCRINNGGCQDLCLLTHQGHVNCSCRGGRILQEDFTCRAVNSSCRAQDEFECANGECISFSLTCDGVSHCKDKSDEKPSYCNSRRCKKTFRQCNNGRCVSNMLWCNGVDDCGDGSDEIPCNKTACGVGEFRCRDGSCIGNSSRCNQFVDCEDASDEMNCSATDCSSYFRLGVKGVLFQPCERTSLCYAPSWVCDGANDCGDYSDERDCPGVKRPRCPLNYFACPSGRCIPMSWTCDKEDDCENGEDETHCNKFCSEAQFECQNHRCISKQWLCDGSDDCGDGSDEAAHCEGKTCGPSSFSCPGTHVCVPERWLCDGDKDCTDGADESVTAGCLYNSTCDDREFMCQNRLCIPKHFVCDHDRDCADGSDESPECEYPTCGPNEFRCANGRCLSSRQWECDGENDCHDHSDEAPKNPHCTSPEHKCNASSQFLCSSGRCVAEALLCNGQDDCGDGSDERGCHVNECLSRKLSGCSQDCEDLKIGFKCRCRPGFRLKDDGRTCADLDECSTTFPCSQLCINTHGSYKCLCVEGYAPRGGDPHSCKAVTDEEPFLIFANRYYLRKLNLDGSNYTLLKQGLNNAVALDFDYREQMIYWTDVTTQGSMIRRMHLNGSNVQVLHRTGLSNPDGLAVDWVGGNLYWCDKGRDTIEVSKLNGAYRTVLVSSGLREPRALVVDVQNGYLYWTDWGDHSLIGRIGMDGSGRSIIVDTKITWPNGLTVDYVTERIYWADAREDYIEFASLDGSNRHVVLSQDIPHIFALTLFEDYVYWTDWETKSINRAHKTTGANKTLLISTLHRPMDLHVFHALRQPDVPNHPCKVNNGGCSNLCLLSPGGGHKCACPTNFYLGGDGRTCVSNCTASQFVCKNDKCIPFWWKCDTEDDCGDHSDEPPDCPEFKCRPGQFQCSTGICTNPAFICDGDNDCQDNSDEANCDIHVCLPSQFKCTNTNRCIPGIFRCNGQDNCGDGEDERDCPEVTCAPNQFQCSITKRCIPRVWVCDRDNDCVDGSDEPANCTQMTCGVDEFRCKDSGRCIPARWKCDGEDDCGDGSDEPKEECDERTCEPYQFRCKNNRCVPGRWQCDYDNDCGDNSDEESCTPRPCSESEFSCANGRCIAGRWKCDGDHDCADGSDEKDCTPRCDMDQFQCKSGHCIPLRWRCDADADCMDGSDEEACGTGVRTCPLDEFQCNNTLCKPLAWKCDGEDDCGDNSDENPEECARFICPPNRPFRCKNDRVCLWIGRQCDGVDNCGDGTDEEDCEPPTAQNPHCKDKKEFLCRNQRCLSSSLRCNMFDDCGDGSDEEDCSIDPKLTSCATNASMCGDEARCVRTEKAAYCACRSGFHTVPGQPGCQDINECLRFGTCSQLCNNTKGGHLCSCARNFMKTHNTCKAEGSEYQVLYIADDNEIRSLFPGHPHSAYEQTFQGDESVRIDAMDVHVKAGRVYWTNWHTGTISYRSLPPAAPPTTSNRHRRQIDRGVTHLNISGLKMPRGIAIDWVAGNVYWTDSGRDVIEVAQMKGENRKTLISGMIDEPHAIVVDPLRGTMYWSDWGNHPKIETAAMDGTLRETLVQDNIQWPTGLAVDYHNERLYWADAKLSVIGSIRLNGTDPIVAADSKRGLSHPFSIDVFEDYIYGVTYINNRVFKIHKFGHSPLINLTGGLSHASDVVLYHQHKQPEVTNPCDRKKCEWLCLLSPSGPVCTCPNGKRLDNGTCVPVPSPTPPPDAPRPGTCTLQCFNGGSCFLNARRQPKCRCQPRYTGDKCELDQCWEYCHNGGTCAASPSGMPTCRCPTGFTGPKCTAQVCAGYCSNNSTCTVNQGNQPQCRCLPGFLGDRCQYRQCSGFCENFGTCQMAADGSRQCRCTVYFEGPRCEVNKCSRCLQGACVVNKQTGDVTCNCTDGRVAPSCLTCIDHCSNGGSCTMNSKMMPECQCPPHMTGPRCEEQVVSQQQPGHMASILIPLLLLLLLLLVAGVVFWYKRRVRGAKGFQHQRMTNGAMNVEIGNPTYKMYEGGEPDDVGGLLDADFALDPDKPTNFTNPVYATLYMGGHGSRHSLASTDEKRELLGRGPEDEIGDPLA

[2] = target: β1-integrin (mouse (endogenous in iBECs)) (UniProt P09055)
[3] = target: T1, murine Gpr126-myc tagged protein (mouse); remark: listed apart in the source

| Molecule | binding [1] | binding [3] | further results |
| --- | --- | --- | --- |
| low-density lipoprotein receptor-related protein-1 (Lrp1) (from UniProt Q91ZX7 20-4545) | binds | – | – |
| β1-integrin (from UniProt P09055 21-798) (receptor) | binds | – | – |
| murine Gpr126-myc tagged protein (receptor, UniProt Q6F3F9 31-1165) VPLSVCGCGSCRLVLSNPSGTFTSPCYPNDYPNTQSCSWTLRAPAGYIIQITFNDFDIEEAPNCIYDSLSLDNGESQTKFCGATAKGLSFNSSVNEMHVSFSSDFSIQKKGFNASYIRVAVSLRNQKVILPQTLDAYQVSVAKSISIPELKAFTLCFEASKVGNEGGDWTAFSYSDESLTQLLSLEKASNGYFLSISGSRCLLNNALPVKDKEDIFTENLEQLCLVWNNSWGSIGINFKKNYETVPCDSTISAVVPGDGTLLLGSDRDEVASLRGSIYNFRLWNFTMDLKALSNLSCSVSGNVIDWHNDFWSISTQALKAEGNLSCGSYLIQLPAAELTNCSELGTLCQDGIMYRISVVIHNDFNHPEVKVQTKVAEWLNSTFQNWNYTVYVVNISFHQKVGEDRMKVKRDIMDDDKRLVLWALLVYNATNNVSLNEEKIKQKLMTNNASLEDGLRLCEVDVNQLGMCSALEDPDGFSWPATLPSVYKQPCPNKPGFFMTRACLSNGTSTFWGPVDTSNCSRQSNEVANEILNQTGDGQNLTSANINSIVEKVKRIVNKEENIDITLGSTLMNIFSNILSSSDSDLLESSTEALKTIDELAFKIDLNSTPHVNIETQNLALGVSSLIPGTNAPSNFSIGLPSNNESYFQMDFGNGQTDPLASVILPPNLLENLSPEDSVLVRRAQFTFFNKTGLFQDVGSQRKVLVSYVMACSIGNITIQNLKDPVQIKIKHTRTQEVHHPICAFWDMNKNKSFGGWNTSGCVAHSDLDAGETICLCSHFTHFGVLMDLPRSASQIDGRNTKVLTFITYIGCGISAIFSAATLLTYVAFEKLRRDYPSKILMNLSSALLFLNLIFLLDGWVTSFGVAGLCTAVAALLHFFLLATFTWMGLEAIHMYIALVKVFNTYIHRYILKFCIIGWGLPALVVSIILVSRRQNEVYGKESYGKDQDDEFCWIQDPVVFYVSCAGYFGVMFFLNVAMFIVVMVQICGRNGKRSNRTLREEVLRNLRSVVSLTFLLGMTWGFAFFAWGPLNIPFMYLFSIFNSLQGLFIFIFHCAMKENVQKQWRRHLCCGRFRLADNSDWSKTATNIIKKSSDNLGKSLSSSSIGSNSTYLTSKSKSSSTTYFKRNSHSDNFS | – | – | binding [2]: binds |
| α3-integrin (receptor, UniProt Q62470 33-1053) FNLDTRFLVVKEAVNPGSLFGYSVALHRQTERQQRYLLLAGAPRDLAVGDDYTNRTGAVYLCPLTAHKDDCERMDISEKSDPDHHIIEDMWLGVTVASQGPAGRVLVCAHRYTKVLWSGLEDQRRMVGKCYVRGNDLQLDPGDDWQTYHNEMCNSNTDYLQTGMCQLGTSGGFTQNTVYFGAPGAYNWKGNSYMIQRKDWDLSEYSYRGSEEQGNLYIGYTVQVGNAILHPTDIITVVTGAPRHQHMGAVFLLKQESGGDLQRKQVLKGTQVGAYFGSAIALADLNNDGWQDLLVGAPYYFERKEEVGGAVYVFMNQAGASFPDQPSLLLHGPSRSAFGISIASIGDINQDGFQDIAVGAPFEGLGKVYIYHSSSGGLLRQPQQIIHGEKLGLPGLATFGYSLSGKMDVDENLYPDLLVGSLSDHIVLLRARPVINILHRTLVARPAVLDPALCTATSCVQVELCFAYNQSAGNPNYRRNITLAYTLEADRDRRPPRLRFARSQSSVFHGFFSMPETHCQTLELLLMDNVRDKLRPIVIAMNYSLPLRMPDRLKLGLRSLDAYPVLNQAQAMENHTEVHFQKECGPDNKCDSNLQMRAAFLSEQLQPLSRLQYSRDTKKLFLSINVTNSPSSQRAGEDAHEALLTLEVPSALLLSSVRPSGTCQANNETILCELGNPFKRNQRMELLIAFEVIGVTLHTRDLPVLLQLSTSSHQDNLQPVLLTLQVDYTLQASLSLMNHRLQSFFGGTVMGEAAMKTAEDVGSPLKYEFQVSPVGDGLAALGTLVLGLEWPYEVTNGKWLLYPTEITIHSNGSWPCQPSGNLVNPLNLTLSDPGVTPLSPQRRRRQLDPGGDQSSPPVTLAAAKKAKSETVLTCSNGRARCVWLECPLPDTSNITNVTVKARVWNSTFIEDYKDFDRVRVDGWATLFLRTSIPTINMENKTTWFSVDIDSELVEELPAEIELWLVLVAVGAGLLLLGLIILLLWKCGFFKRARTRALYEAKRQKAEMKSQPSETERLTDDY | – | binds | – |
| α1-integrin (receptor, UniProt Q3V3R4 29-1179) FNVDVKNSMSFSGPVEDMFGYTVQQYENEEGKWVLIGSPLVGQPKARTGDVYKCPVGRERSMPCVKLDLPVNTSIPNVTEIKENMTFGSTLVTNPKGGFLACGPLYAYRCGHLHYTTGICSDVSPTFQVVNSFAPVQECSTQLDIVIVLDGSNSIYPWESVTAFLNDLLKRMDIGPKQTQVGIVQYGANVTHEFNLNKYSSTEEVLVAANKIGRRGGLQTMTALGIDTARKEAFTEARGARRGVKKVMVIVTDGESHDNYRLKQVIQDCEDENIQRFSIAILGHYNRGNLSTEKFVEEIKSIASEPTEKHFFNVSDELALVTIVKALGERIFALEATADQSAASFEMEMSQTGFSAHYSQDWVMLGAVGAYDWNGTVVMQKANQIVIPHNTTFQTEPTKMNEPLASYLGYTVNSATIPGDVLYIAGQPRYNHTGQVVIYKMEDGDVNILQTLSGEQIGSYFGSVLTTIDIDKDSYTDLLLVGAPMYMGTEKEEQGKVYVYAVNQTRFEYQMSLEPIKQTCCSSLKDNSCTKENKNEPCGARFGTAVAAVKDLNVDGFNDVVIGAPLEDDHAGAVYIYHGSGKTIRKEYAQRIPSGGDGKTLKFFGQSIHGEMDLNGDGLTDVTIGGLGGAALFWARDVAVVKVTMNFEPNKVNIQKKNCRVEGKETVCINATMCFHVKLKSKEDSVYEADLQYRVTLDSLRQISRSFFSGTQERRIQRNLTVRESECIRHSFYMLDKHDFQDSVRVTLDFNLTDPENGPVLDDALPNSVHGHIPFAKDCGNKERCVSDLTLDVSTTEKNLLIVRSQNDKFNVSLTVKNKGDSAYNTRTVVQYSPNLIFSGIEEIQKDSCESNQNITCRVGYPFLRTGDVVNFKIIFQFNTSHLSENAIIHLSATSDSEEPLESLYDNEVNISIPVKYEVGLQFYSSASEHHISVAANETVPELINSTKDIGDEINVFYTIRKRGHFPMPELRLAISFPNLTSDGYPVLYPTGWSSSDNVNCRPRSLEDPLGINSGKKMTISKSEVLKRGTIQDCSTCKIATITCHLLPSDVSQVNVSLILWKPTFIKAHFSSLNLTIRGELQSENSSLTLSSSNRKRELAIQISKDGLPGRVPLWVILLSAFAGLLLLMLLILALWKIGFFKRPLKKKMEK | – | no binding | – |

Reference: article doi:10.1101/2022.09.09.507316
